Data taken from PubChem BioAssay AID504327 (National Center for Advancing Translational Sciences (NCATS), 2011).
About 820 (0.21%) of roughly 390,000 compounds were called active. Inconclusive results, whose numbers are uncertain, are shown with a selection of clear calls. Calls come from the whole dose curve; as a rule, active = well fitted inhibition curve with a large enough effect; inconclusive = small, poorly fitted or top-dose-only effect, or another doubt; inactive = no such curve, though single readings can be large or run the other way. Potencies beside an inconclusive call are fits to weak or partial responses and may not hold up.

Sequences of proteins named here, by UniProt entry; tags and fusion partners are left off.
UniProt Q92830, whole entry, looked up: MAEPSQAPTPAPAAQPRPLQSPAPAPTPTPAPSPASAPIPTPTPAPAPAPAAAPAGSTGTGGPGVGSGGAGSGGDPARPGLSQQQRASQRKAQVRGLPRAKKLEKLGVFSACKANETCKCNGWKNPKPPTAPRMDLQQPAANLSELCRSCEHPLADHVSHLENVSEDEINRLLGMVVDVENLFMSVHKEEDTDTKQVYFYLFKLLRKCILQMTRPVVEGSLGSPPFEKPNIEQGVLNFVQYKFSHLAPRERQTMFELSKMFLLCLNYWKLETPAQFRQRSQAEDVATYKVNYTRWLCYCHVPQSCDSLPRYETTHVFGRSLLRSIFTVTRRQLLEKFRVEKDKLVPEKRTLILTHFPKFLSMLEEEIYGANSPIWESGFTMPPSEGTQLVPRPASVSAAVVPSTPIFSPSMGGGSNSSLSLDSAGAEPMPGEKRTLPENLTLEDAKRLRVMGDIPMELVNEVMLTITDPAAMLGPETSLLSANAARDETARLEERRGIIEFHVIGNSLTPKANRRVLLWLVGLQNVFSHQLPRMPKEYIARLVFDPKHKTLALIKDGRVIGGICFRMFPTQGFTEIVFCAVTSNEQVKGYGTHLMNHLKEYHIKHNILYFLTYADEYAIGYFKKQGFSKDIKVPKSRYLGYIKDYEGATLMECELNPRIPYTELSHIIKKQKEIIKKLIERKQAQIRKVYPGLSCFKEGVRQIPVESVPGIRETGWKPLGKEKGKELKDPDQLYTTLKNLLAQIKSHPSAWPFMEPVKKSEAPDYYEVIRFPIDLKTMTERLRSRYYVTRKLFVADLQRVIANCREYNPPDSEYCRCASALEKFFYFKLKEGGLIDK

The compounds below were run against Histone acetyltransferase KAT2A (Homo sapiens) (UniProt Q92830) (assay: qHTS Assay for Inhibitors of GCN5L2). Details: GCN5L2 HAT assay, ThioGlo1 CoA-SH fluorescence; series mostly up to 58.9 µM.
How it was run: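 GCN5L2 (20nM final) in 50mM HEPES, 0.1mM EDTA pH 7.5, 0.01% Tween-20 was preincubated 15 min at room temperature with compound, then given ThioGlo1 (50uM), H3(1-25) peptide (75uM) and acetyl-CoA (70uM); CoA-thiol fluorescence (Ex340/Em540) was read at 0 and 20 min.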
Potency is the fitted concentration of half-maximal effect.

Row | Structure (SMILES) | Potency
1 | COc1ccc(C(CNC(=O)c2ccc(NS(=O)(=O)c3ccc(F)cc3)cc2)N2CCOCC2)cc1 (stereo unspecified) | inconclusive: 22.4 µM [inhibitor, partial curve, poor fit]
2 | CCOC(=O)c1cc(=O)n2[nH]c(-c3ccc(C)cc3)cc2n1 | inconclusive: 35.5 µM [inhibitor, single point]
3 | CS(=O)(=O)N(CC(=O)Nc1c(F)cccc1F)c1ccc(C23CC4CC(CC(C4)C2)C3)cc1 | inconclusive: 0.355 µM [inhibitor, partial curve]
4 | O=C(Cn1ncc2c(=O)oc3ccccc3c21)Nc1nc2ccccc2s1 | inconclusive: 7.08 µM [inhibitor, single point]
5 | O=C(Nc1cccc(-c2cn3cccnc3n2)c1)c1ccco1 | inconclusive: 15.8 µM [inhibitor, partial curve]
6 | CCOc1ccc(CNC(=O)c2ccc(NC(=O)N3CCSc4ncccc43)cc2)cc1 | inconclusive: 5.62 µM [inhibitor, single point]
7 | NS(=O)(=O)c1ccc(CCNC(=O)C(=O)NCC2OCCN2S(=O)(=O)c2ccc(Cl)cc2)cc1 (stereo unspecified) | inconclusive: 5.01 µM [inhibitor, full curve]
8 | NOCc1ccccc1 | inactive
9 | COc1ccc2nc(NC(=O)CN(C)S(=O)(=O)c3cccs3)sc2c1 | inconclusive: 0.126 µM [inhibitor, full curve, poor fit]
10 | Cc1ccc(-c2nnc(SCC(=O)N(CC(C)C)c3c(N)n(Cc4ccccc4)c(=O)[nH]c3=O)n2N)cc1 | inconclusive: 1.78 µM [inhibitor, full curve, poor fit]
11 | Cc1ccccc1NC(=O)CN1C(=O)S/C(=C\c2ccc(-c3cccc(C(=O)O)c3C)o2)C1=O | inactive
12 | CN(C(=O)Nc1ccccc1)C1CCCCC1 | inactive
13 | COc1cccc(-c2nc(NCc3cccs3)c3ccccc3n2)c1 | inconclusive: 28.2 µM [inhibitor, partial curve]
14 | CCn1c(/C=C/c2cc[n+](C)cc2)nc2ccccc21 | inconclusive: 28.2 µM [inhibitor, partial curve]
15 | CCCCC(=O)N/N=C(\C)CC(=O)Nc1cc(Cl)ccc1OC | inconclusive: 20 µM [inhibitor, partial curve]
16 | Nc1ccc(-c2nc3ccc(N)cc3[nH]2)cc1 | inconclusive: 17.8 µM [inhibitor, partial curve]
17 | COc1ccc(-n2c(C)nn(C)c2=O)cc1 | inconclusive: 0.126 µM [inhibitor, partial curve, poor fit]
18 | Cc1ccc(-c2nc(C#N)c(NCc3ccco3)o2)cc1 | inactive
19 | CCc1ccc(-n2c(SCc3ccccc3Cl)nc3[nH]ncc3c2=O)cc1 | inconclusive: 2.82 µM [inhibitor, full curve]
20 | C=CCn1c(=O)[nH]c2nc3cc(N=CN(C)C)c(C)cc3nc2c1=O | inactive
21 | O=C(O)C1Nc2c(cccc2C(F)(F)F)C2C=CCC12 (stereo unspecified) | inconclusive: 35.5 µM [inhibitor, single point]
22 | Cc1ccc(C2=NC(=O)/C(=C/c3cc(O)c(O)c(Br)c3)S2)cc1 | inconclusive: 20 µM [inhibitor, partial curve]

Row | Structure (SMILES) | Potency
23 | CCN1CCN(CCC(=O)Nc2ccccc2C)CC1 | inconclusive: 39.8 µM [inhibitor, single point]
24 | C=C[C@@]1(C)CC[C@H]2C(=CC[C@@H]3[C@]2(C)CCC[C@@]3(C)C(=O)O)C1 | inconclusive: 39.8 µM [inhibitor, single point]
25 | CC(C(=O)NCc1ccc(F)cc1)c1ccc([N+](=O)[O-])cc1 (stereo unspecified) | inconclusive: 44.7 µM [inhibitor, partial curve, poor fit]
26 | CCc1cc(=O)oc2c3c(cc(OCC(=O)NCc4cccnc4)c12)OC(C)(C)CC3 | inconclusive: 35.5 µM [inhibitor, single point]
27 | O=[N+]([O-])c1ccc(O)c(Nc2ncnc3ccc(Br)cc23)c1 | inconclusive: 28.2 µM [inhibitor, single point]
28 | Nc1ccccc1OCCOCCOc1ccccc1N | inconclusive: 2.82 µM [inhibitor, partial curve]
29 | c1ccc2c(c1)nc(N1CCOCC1)c1nncn12 | inactive
30 | Cn1c(=O)oc2cc(S(=O)(=O)N3CCCC(C(=O)NCCc4ccccc4)C3)ccc21 (stereo unspecified) | inactive
31 | O=S(=O)(c1ccccc1)N(Cc1nc(-c2ccccc2)no1)C1CCCCC1 | inactive
32 | COc1ccccc1CNC(=O)c1ccc2c(=O)n(CCCN3CCCC3=O)c(=S)[nH]c2c1 | inconclusive: 31.6 µM [inhibitor, single point]
33 | O=C(OC[C@@H](O)CO)c1ccccc1Nc1ccnc2cc(Cl)ccc12 | inconclusive: 15.8 µM [inhibitor, single point]
34 | CCOC(=O)C1(Cc2ccccc2Cl)CCN(C(=O)CCn2ccnc2C)CC1 | inconclusive: 39.8 µM [inhibitor, single point]
35 | CCN(C(=O)COC(=O)Cc1coc2cc(C)ccc12)c1c(N)n(Cc2ccccc2)c(=O)[nH]c1=O | inactive
36 | O=C(NCCN1C(=O)S/C(=C\c2ccc(Cl)c(Cl)c2)C1=O)c1ccc2c(c1)C(=O)N(Cc1ccncc1)C2=O | inconclusive: 25.1 µM [inhibitor, single point]
37 | COc1ccc(S(=O)(=O)Nc2ccc3c(c2)OCO3)cc1 | inactive
38 | COCc1cc(C)nc(SCc2ccc(F)cc2)c1C#N | inactive
39 | COc1cc(/C=N/NC(=O)c2ccc(NC(=O)C3CC3)cc2)ccc1OC(C)=O | inconclusive: 0.112 µM [inhibitor, full curve, poor fit]
40 | Cc1cccc(CN2C[C@]34CC[C@@H](C[C@@H]3S2(=O)=O)O4)c1 | inconclusive: 39.8 µM [inhibitor, single point]
41 | Cc1ccc2nc(NC(=O)c3ccc(N4C(=O)CCC4=O)cc3)sc2c1 | inactive
42 | NCCCCNCCCN | inconclusive: 39.8 µM [inhibitor, single point]
43 | CC1(C)CC(/C=C/c2ccccc2)=Nc2ccccc2N1 | inconclusive: 0.355 µM [inhibitor, full curve, poor fit]
44 | Cc1cccn2c(=O)c(C(=O)NCCc3ccccc3)cnc12 | inactive

4 of these compounds, set out differently:

| Row | Structure (SMILES) | Potency |
| --- | --- | --- |
| 25 | CC(C(=O)NCc1ccc(F)cc1)c1ccc([N+](=O)[O-])cc1 (stereo unspecified) | inconclusive: 44.7 µM [inhibitor, partial curve, poor fit] |
| 26 | CCc1cc(=O)oc2c3c(cc(OCC(=O)NCc4cccnc4)c12)OC(C)(C)CC3 | inconclusive: 35.5 µM [inhibitor, single point] |
| 27 | O=[N+]([O-])c1ccc(O)c(Nc2ncnc3ccc(Br)cc23)c1 | inconclusive: 28.2 µM [inhibitor, single point] |
| 28 | Nc1ccccc1OCCOCCOc1ccccc1N | inconclusive: 2.82 µM [inhibitor, partial curve] |

The results go on:

Row | Structure (SMILES) | Potency
45 | CCCCC(=O)N1CCCC(C)C1 (stereo unspecified) | inconclusive: 0.794 µM [inhibitor, single point]
46 | O=C1Nc2ccccc2C(O)(C(=O)NCc2ccc3c(c2)OCO3)N1c1ccc(Cl)c(Cl)c1 (stereo unspecified) | inconclusive: 25.1 µM [inhibitor, single point]
47 | O=C(Nc1nnc(SCc2cccnc2)s1)C1CC(=O)N(c2ccc(F)cc2)C1 (stereo unspecified) | inconclusive: 0.316 µM [inhibitor, full curve, poor fit]
48 | CCOC(=O)c1c(NC(=O)c2c(C(=O)O)cccc2[N+](=O)[O-])sc2c1CCCC2 | inactive
49 | FC(F)Oc1ccc(/C=N/n2c(Cc3ccc(Br)cc3)n[nH]c2=S)cc1 | inconclusive: 22.4 µM [inhibitor, single point]
50 | O=C(NCCCN1CCOCC1)C1CC(=O)N(C2CCCCC2)C1 (stereo unspecified) | inconclusive: 39.8 µM [inhibitor, single point]
51 | Cc1ccc2c(C)c(C(=O)N(C)C(C)c3ccon3)oc2c1C (stereo unspecified) | inconclusive: 0.282 µM [inhibitor, full curve, poor fit]
52 | O=C(c1ccccc1)c1ccc2nc(-c3ccco3)c(-c3ccco3)nc2c1 | inconclusive: 35.5 µM [inhibitor, single point]
53 | O=C(O)C1Cc2ccccc2CN1C(=O)COc1ccc(Cl)cc1Cl (stereo unspecified) | inactive
54 | COC(=O)c1cn(CC(=O)N2CCCCC2C)c2ccccc12 (stereo unspecified) | inconclusive: 0.631 µM [inhibitor, full curve, poor fit]
55 | Cc1ccc(S(=O)(=O)N2[C@@H](c3ccccc3)C(C(=O)O)=CC[C@H]2c2ccc(Cl)c(Cl)c2)cc1 | inconclusive: 39.8 µM [inhibitor, single point]
56 | Cc1ccc(NC(=O)CN(C)CC(=O)Nc2c(C)cccc2C)c(Br)c1 | inconclusive: 39.8 µM [inhibitor, single point]
57 | S=C1NC=NC2N=CNC12 (stereo unspecified) | inconclusive: 39.8 µM [inhibitor, single point]
58 | CCOc1ccc(-c2cc(C(=O)NCc3ccccc3Cl)c3ccccc3n2)cc1 | inactive
59 | N#Cc1c2n(c3c(=O)n(Cc4ccc(Cl)cc4)cnc13)CCCCC2 | inconclusive: 12.6 µM [inhibitor, partial curve]
60 | C=Cc1cccc(NC(=O)COc2ccccc2)c1 | inconclusive: 5.01 µM [inhibitor, full curve, poor fit]
61 | C/C(=N/NS(=O)(=O)c1ccc(Cl)cc1)c1cccc(NC(=O)c2ccc(Cl)cc2Cl)c1 | inconclusive: 22.4 µM [inhibitor, partial curve]
62 | COc1ccccc1NS(=O)(=O)c1cc(NC(=O)c2cccs2)ccc1N1CCOCC1 | inconclusive: 39.8 µM [inhibitor, single point]
63 | COc1cc2c(cc1OC)C(C)N(C(=O)c1ccc(Cl)c(S(=O)(=O)N3CCCCC3)c1)CC2 (stereo unspecified) | inconclusive: 7.08 µM [inhibitor, single point]
64 | O=C(NCCOc1ccc(F)cc1)C1CCC(=O)N(CCN2CCOCC2)C1 (stereo unspecified) | inconclusive: 1.58 µM [inhibitor, full curve, poor fit]
65 | COc1ccc(-c2sc3ccccc3c2C#CC2(O)CCCCC2)cc1 | inconclusive: 39.8 µM [inhibitor, single point]
66 | O=C(N/N=C/c1cc([N+](=O)[O-])ccc1O)c1cccc2ccccc12 | inconclusive: 0.708 µM [inhibitor, single point]
